Laboratory results taken from PMC7335091, “Mechanistic insights into chromatin targeting by leukemic NUP98-PHF23 fusion” (Nature Communications, 2020).

Biological target: T1, PHF23 PHD finger (PHF23PHD) (Homo sapiens, UniProt Q9BUL5)
T1 sequence (Q9BUL5 338-393): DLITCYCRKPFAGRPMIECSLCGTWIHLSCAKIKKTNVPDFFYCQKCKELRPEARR

CCCCc1oc2ccccc2c1C(=O)c1cc(I)c(OCCN(CC)CC)c(I)c1 [AD, amiodarone]
1H,15N HSQC NMR titration: Gradual addition of AD or DS to PHF23PHD induced small but significant CSPs in the protein, indicative of direct interactions
